No constants are given. Whether binding was seen depends on the method and setting. In cells and extracts the contact can be indirect. These calls come from enrichment with a bait or labelling near it, and not all partners need be listed.
Molecular target: P. falciparum GAP45 tagged internally with GFP (P. falciparum) (UniProt Q8I5I8)
Assay: affinity purification with mass spectrometry; GFP-Trap precipitate of GAP45-GFP schizont lysate, SDS-PAGE, SYPRO Ruby, three bands excised, tryptic digestion, LC-MS/MS; control 3D7

Protein sequences, listed by entry. Tags and fused reporters are not part of them. Lines headed by an entry give the natural chain unless they say otherwise; changes in a name come on top.
UniProt Q8I5I8: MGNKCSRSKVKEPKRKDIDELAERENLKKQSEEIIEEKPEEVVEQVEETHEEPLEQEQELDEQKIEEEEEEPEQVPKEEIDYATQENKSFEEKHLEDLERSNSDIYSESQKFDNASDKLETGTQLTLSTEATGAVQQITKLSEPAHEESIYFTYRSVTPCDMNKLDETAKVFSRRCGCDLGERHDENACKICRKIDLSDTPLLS
UniProt Q8IDR3: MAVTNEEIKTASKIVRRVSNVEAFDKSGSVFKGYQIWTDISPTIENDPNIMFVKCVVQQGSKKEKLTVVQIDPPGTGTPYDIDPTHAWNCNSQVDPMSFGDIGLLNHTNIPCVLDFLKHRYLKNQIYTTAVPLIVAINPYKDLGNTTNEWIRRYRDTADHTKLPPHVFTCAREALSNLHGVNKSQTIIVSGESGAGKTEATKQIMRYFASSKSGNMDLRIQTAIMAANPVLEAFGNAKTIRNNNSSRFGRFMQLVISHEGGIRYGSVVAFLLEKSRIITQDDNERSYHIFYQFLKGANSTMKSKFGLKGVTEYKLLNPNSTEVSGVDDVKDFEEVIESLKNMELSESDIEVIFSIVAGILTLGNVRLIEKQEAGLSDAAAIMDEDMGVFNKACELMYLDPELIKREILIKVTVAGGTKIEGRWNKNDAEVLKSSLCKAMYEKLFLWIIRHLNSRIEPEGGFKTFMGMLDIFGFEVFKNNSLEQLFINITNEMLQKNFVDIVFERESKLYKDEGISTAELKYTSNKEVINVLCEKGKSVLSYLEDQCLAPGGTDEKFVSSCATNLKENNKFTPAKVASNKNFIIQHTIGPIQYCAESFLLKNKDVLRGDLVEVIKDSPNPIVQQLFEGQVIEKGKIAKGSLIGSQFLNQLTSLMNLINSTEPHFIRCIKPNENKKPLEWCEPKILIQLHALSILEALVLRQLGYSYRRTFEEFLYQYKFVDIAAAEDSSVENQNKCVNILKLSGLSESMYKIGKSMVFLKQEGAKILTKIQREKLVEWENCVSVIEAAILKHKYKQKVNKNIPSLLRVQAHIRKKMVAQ
UniProt Q8IFN1: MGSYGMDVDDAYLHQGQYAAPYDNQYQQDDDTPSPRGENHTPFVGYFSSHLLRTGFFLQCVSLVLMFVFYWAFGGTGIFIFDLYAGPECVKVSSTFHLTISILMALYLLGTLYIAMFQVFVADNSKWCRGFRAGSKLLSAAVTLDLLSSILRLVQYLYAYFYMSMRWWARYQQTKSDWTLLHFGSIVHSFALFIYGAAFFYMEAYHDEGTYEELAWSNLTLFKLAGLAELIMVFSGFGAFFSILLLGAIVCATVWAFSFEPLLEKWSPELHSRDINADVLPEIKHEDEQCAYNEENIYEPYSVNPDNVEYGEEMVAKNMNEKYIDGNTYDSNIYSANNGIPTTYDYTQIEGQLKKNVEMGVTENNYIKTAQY
UniProt Q8IM26: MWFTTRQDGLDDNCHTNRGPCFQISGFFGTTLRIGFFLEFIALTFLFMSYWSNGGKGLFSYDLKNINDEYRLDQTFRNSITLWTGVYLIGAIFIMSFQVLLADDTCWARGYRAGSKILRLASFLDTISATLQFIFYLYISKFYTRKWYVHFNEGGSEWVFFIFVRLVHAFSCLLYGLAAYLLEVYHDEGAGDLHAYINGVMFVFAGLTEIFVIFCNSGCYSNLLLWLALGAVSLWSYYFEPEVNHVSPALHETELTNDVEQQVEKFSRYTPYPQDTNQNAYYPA
UniProt Q8IJM4: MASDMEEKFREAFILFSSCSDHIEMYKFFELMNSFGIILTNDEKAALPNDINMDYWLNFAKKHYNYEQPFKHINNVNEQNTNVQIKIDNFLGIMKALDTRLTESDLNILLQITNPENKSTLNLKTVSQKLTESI

| Molecule | binding |
| --- | --- |
| Putative glideosome-associated protein 40 (GAP40), endogenous (protein, UniProt Q8I3V1 1-456, phosphorylated (labelled with [32P]phosphate in schizonts; sites not given)) MKFEKFNIPEWSDIERYFKDPELLTAEILFVALTLCNVFVMYRLFLDVIPYPIFVTWWQLAQGLLVAYVCGELGREFPKFAYFPKVEINENMLKVLFVPSIFYCLMLVLSNYLLYKTPCIASYPVLVSFTVVFHHLTRFIGCGEEYMPLRWKSIVFLLAAFIIGCFDSKTTGKGVIVWALLYALFSAIFRAGFMQKIMHLVDGKGNTLHNNQHLLGVLILPVLILLSGELSVFVHMPYDITSLHTWQMWGCLITVGTLPFIKNVISNRLVRRTGQGPWRFLEIISIILVFFIGMTYNAPSFKGYLAILCVIIGRSLGAFDVLLNASDYMHAEDERKRKNPRASYAKSRQGTQASKPFLSSADNEEDEESSFSSNDSKSYQGSQDYDDKESVNSSSQQYSVHKGTSHMDSSSNQTSHGVISADEGRGEHSRAATFKSKSKLSRNYSSKQHEMLDSQA | binds |

Molecular target: P. falciparum MyoA-GFP (myosin A tagged at its C terminus with GFP, expressed from the endogenous locus) (P. falciparum) (UniProt Q8IDR3)
Assay: affinity purification with mass spectrometry; GFP-Trap precipitate of MyoA-GFP schizont lysate, run 4 mm into a gel, tryptic digestion, LC-MS/MS; control 3D7 with unmodified MyoA; two or more specific peptides

| Molecule | binding |
| --- | --- |
| Glideosome-associated protein 45 (GAP45), endogenous (from UniProt Q8I5I8 1-204) | binds |
| Glideosome-associated protein with multiple membrane spans 2 (GAPM2) (from UniProt Q8IFN1) | binds |
| Glideosome-associated protein with multiple membrane spans 3 (GAPM3) (from UniProt Q8IM26) | binds |
| P. falciparum essential light chain (PfELC), endogenous (from UniProt Q8IJM4 1-134) | binds |
| Putative glideosome-associated protein 40 (GAP40), endogenous (protein, UniProt Q8I3V1 1-456, phosphorylated (labelled with [32P]phosphate in schizonts; sites not given)) MKFEKFNIPEWSDIERYFKDPELLTAEILFVALTLCNVFVMYRLFLDVIPYPIFVTWWQLAQGLLVAYVCGELGREFPKFAYFPKVEINENMLKVLFVPSIFYCLMLVLSNYLLYKTPCIASYPVLVSFTVVFHHLTRFIGCGEEYMPLRWKSIVFLLAAFIIGCFDSKTTGKGVIVWALLYALFSAIFRAGFMQKIMHLVDGKGNTLHNNQHLLGVLILPVLILLSGELSVFVHMPYDITSLHTWQMWGCLITVGTLPFIKNVISNRLVRRTGQGPWRFLEIISIILVFFIGMTYNAPSFKGYLAILCVIIGRSLGAFDVLLNASDYMHAEDERKRKNPRASYAKSRQGTQASKPFLSSADNEEDEESSFSSNDSKSYQGSQDYDDKESVNSSSQQYSVHKGTSHMDSSSNQTSHGVISADEGRGEHSRAATFKSKSKLSRNYSSKQHEMLDSQA | binds |
